From PMC11090908
These are yes or no findings as the source states them, for the method shown. Some binding calls cover weakened binding; strength is not graded here. Tags and fused reporters may be left off the sequences shown.

Target: T1, GFP-Aurora-A (stably expressed in HeLa cells) (human), O14965
T1 chain: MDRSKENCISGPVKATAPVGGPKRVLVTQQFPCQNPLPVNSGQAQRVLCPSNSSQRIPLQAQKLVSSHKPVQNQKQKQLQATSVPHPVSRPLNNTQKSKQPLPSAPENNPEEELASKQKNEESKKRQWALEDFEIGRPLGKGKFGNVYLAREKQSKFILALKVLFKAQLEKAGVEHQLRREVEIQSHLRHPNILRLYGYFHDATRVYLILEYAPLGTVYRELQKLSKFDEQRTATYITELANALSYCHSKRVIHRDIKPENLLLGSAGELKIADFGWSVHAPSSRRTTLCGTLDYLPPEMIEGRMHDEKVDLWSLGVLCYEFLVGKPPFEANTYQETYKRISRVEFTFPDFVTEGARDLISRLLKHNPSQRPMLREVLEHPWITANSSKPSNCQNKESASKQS
Assay: recruitment of a purified fluorescent protein to coated beads, seen by fluorescence microscopy; GFP beads coated with GFP-Aurora-A and its binding adaptors from lysate of mitotic HeLa cells; purified mCherry-tagged proteins added; only the binder purified
Conditions: remark: other sources report otherwise

binding: binds
B1: His-mCherry-Aurora-A, O14965 1-403 (protein)
chain: T1 chain
